Reference: PMC12263510
These are yes or no findings as the source states them, for the method shown. In cells and extracts the contact can be indirect. Some results given as binding are weak or reduced against the parent protein; the word gives no strength.

Chains of the proteins cited; added tags and fusions are not shown.
UniProt P40763: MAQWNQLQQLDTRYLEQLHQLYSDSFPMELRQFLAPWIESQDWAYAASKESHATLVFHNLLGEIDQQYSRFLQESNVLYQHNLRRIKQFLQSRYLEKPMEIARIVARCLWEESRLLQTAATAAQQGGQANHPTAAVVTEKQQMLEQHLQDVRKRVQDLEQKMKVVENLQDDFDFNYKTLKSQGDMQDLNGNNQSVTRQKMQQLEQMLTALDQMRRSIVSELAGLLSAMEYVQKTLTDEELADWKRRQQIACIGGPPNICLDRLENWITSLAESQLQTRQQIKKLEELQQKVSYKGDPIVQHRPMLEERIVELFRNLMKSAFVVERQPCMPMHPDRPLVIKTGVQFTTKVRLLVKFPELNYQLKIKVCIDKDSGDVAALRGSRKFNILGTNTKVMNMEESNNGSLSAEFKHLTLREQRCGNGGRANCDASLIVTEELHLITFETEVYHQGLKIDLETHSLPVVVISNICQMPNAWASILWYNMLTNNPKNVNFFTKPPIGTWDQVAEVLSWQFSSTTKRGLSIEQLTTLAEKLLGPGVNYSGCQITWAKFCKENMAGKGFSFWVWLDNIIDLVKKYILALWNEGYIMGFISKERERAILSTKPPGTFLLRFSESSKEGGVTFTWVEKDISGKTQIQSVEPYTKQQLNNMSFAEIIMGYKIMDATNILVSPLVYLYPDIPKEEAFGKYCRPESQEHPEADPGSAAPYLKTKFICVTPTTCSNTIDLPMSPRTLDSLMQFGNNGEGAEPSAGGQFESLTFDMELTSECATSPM
UniProt Q9NRC8: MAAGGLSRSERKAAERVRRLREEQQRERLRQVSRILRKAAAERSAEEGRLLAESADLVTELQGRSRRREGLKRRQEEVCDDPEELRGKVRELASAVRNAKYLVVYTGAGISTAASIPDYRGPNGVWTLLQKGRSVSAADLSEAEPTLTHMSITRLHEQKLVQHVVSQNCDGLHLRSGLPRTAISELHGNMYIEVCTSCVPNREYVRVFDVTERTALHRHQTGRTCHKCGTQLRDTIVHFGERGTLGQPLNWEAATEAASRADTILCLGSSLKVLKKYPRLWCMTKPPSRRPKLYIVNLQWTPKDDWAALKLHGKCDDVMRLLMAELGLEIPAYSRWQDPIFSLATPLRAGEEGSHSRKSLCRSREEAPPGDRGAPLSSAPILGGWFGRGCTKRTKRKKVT

Columns and labels:
[1] = target: Signal Transducer and Activator of Transcription 3 (STAT3), endogenous (human (endogenous in HEK293T)) (UniProt P40763); assay: co-IP; endogenous proteins; HEK293T lysate incubated with anti-SIRT7, anti-STAT3 or isotype control IgG overnight at 4°C, Protein A/G magnetic beads 2 h at 4°C, immunoblotting
[2] = target: Signal Transducer and Activator of Transcription 3 (STAT3), exogenous, tagged (UniProt P40763); assay: co-IP; exogenous proteins; HEK293T lysate incubated with anti-Flag, anti-HA or isotype control IgG overnight at 4°C, Protein A/G magnetic beads 2 h at 4°C, immunoblotting

binding [1] | binding [2] | Substance
binds | – | Sirtuin 7 (SIRT7), endogenous (from UniProt Q9NRC8 1-400)
– | binds | Sirtuin 7 (SIRT7), exogenous, tagged (from UniProt Q9NRC8 1-400)
